{"source": "patent US20220315895A1", "about": "“METHODS OF MAKING OLIGOPOTENT AND UNIPOTENT PRECURSORS” (Transfusion Health, LLC, priority 2019, published 2022)", "tested_on": "expanded cord blood CD34+ cells, granulocyte (CD15+/CD14−) and monocyte (CD14+/CD15−) lineage", "test": "Myeloid (granulocyte and monocyte) Differentiation Culture after Expansion Culture (Example 38)", "format": "cell-based, human", "conditions": "for therapeutic doses of granulocyte progenitors per banked cord blood unit: 5×10^10 cells per dose", "experimental": "At days 21 and 63, CD34+ enriched cells were placed into Differentiation Cultures, described below.\nDifferentiation cultures were initiated using Erythroid, Myeloid (granulocyte and monocyte), and Megakaryocyte HemaTox kits from STEMCELL technologies following the manufacturer's instructions. In brief, lineage media was prepared by adding cytokine cocktails for erythrocyte (SCF, IL-3, and EPO), myeloid (i.e. mixed granulocyte/monocyte, SCF, TPO, G-CSF, and GM-CSF) or megakaryocyte (SCF, IL-6, IL-9 and TPO) lineage differentiation to their respective kits' media, then adding approximately 30-100 CD34+ cells for erythroid or myeloid cultures, or 300-1000 CD34+ cells for megakaryoid cultures. Exact cell numbers plated were quantified for later analysis. All incubations for Differentiation Culture took place at 3% oxygen (controlled by nitrogen) and 5% CO2.\nFollowing seven days of erythroid or myeloid cultures, or ten days for megakaryoid cultures, differentiated cell output was quantified using flow cytometry. Erythroid output was quantified using anti-CD71 and anti-CD235a antibodies, and megakaryocyte lineage output was quantified using anti-CD41 and anti-CD42b antibodies. Granulocyte and monocyte lineage outputs were assessed in tandem, using CD14 and CD15 antibodies, with granulocyte lineage cells being CD15+/CD14−, and monocyte lineage cells being CD14+/CD15−.\nA number of quantities were calculated to assess the effect of expansion of CD34+ cells in the +Formula I Condition on the output of lineage differentiated cells. “Per-Assayed-CD34+ Cell Output” describes the output of differentiated cells per CD34+ cell placed into Differentiation Culture, and is calculated by dividing the total number of lineage-positive cells by the input CD34+ cell number quantified at Differentiation Culture initiation at day 1, 21, or 63. “Per-expanded-day-1-CD34+ cell output” describes the number of differentiated cells of a given lineage that may be produced from a single CD34+ cell following both Expansion Cell Culture (if expanded) followed by Differentiation Culture, and is calculated by multiplying Per-Assayed-CD34+ Cell Output by the fold expansion of CD34+ cells from day 1 to the day of analysis, either day 21 or day 63. […] We calculated therapeutic units for granulocyte precursors, using 50 billion (5×10^10) cells per dose as a conservative benchmark (Valentini, C. G., Farina, F., Pagano, L., and Teofili, L. (2017). Granulocyte Transfusions: A Critical Reappraisal. Biol. Blood Marrow Transplant. 23, 2034-2041). […]", "data": [{"compound": "CC(C)(C)C(=O)Nc1ccc2c(c1)C(O)c1ccccc1-2", "note": "(stereo not shown) [Compound 1.010]", "values": [{"measurement": "therapeutic doses of granulocyte progenitors per banked cord blood unit", "setting": "21 days of Formula I Expansion Culture, 2×10^6 CD34+ cells per cord", "result": 2.8, "unit": "doses"}, {"measurement": "therapeutic doses of granulocyte progenitors per banked cord blood unit", "setting": "63 days of Formula I Expansion Culture", "result": "~530", "unit": "doses"}, {"measurement": "granulocyte progenitor doses relative to Control-expanded cells", "setting": "day 21", "result": "three"}, {"measurement": "granulocyte progenitor doses relative to Control-expanded cells", "setting": "day 63", "result": 20, "unit": "fold"}]}]}
